Where “and” joins values, the source holds several entries; their conditions need not be identical. Equal values may be shown once.
Columns and labels:
P-gp [1] = molecular target: T1, P-gp (Homo sapiens, UniProt P08183); settings: outcome versus clinic in brackets (TP, FP, TN, FN)
P-gp [2] = tested on: P-gp; parameters: method as in Poirier et al. [41]; settings: digoxin efflux ratio, MDR1-transfected cells; ref Poirier et al. [41]; cited from earlier work
P-gp [3] = molecular target: T1, P-gp; settings: perpetrator in clinical digoxin DDI study; ref Poirier et al. [41]; cited from earlier work

The chains behind the UniProt entries cited, without tags or fusion partners.
UniProt P08183, whole entry: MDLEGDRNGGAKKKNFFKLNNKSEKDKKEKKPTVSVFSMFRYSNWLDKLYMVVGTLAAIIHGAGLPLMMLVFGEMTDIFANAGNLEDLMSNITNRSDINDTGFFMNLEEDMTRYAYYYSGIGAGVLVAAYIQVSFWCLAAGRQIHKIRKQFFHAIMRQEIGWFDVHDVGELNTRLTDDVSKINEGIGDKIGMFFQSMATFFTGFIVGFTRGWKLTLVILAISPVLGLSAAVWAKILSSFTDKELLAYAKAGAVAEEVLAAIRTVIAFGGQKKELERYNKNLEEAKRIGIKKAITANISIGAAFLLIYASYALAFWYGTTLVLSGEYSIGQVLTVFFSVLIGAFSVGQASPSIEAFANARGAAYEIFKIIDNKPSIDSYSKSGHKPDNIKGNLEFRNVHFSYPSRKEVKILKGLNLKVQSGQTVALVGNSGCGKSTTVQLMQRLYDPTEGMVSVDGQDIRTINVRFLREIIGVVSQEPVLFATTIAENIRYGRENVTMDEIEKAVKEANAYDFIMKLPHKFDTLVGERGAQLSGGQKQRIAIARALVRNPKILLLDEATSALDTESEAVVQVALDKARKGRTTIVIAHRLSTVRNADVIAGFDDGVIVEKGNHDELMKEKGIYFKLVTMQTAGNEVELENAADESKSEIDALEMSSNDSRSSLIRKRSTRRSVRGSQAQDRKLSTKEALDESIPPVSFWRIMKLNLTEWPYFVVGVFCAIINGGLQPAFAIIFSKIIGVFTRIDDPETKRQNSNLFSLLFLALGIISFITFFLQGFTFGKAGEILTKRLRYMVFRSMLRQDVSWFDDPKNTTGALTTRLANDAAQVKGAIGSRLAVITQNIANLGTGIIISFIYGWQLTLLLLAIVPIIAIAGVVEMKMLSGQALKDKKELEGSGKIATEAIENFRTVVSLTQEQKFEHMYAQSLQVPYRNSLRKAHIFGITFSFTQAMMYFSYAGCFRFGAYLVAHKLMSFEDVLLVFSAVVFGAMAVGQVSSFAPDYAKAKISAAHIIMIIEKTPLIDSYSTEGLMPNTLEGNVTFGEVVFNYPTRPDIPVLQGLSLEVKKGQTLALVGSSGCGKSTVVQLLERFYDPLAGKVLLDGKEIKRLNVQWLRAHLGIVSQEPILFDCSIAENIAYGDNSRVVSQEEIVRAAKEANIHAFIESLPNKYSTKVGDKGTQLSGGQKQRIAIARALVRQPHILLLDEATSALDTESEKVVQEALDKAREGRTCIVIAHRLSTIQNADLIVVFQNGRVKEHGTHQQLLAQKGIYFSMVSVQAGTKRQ

CCCCc1oc2ccccc2c1C(=O)c1cc(I)c(OCCN(CC)CC)c(I)c1 [Amiodarone, amiodarone]
P-gp Inhibition Prediction (FDA Criteria) Digoxin IC50 (P-gp [1]; IC50 from digoxin bidirectional transport assay of Poirier et al. [41]): + (TP) | P-gp Inhibition Prediction (FDA Criteria) Rhodamine 123 IC50 (P-gp [1]; IC50 from rhodamine 123 assay): + (TP) ^9 | IC50 (P-gp [2]): 9.6 µM | [I1] total plasma concentration (P-gp [3]): 2.49 µM and 2.20 µM

Source: paper PMC4932475, “Evaluation of P-Glycoprotein Inhibitory Potential Using a Rhodamine 123 Accumulation Assay” (Pharmaceutics, 2016)
